Drawing on PubChem BioAssay AID212 (DTP/NCI, 2004), this text covers T/C and survivor count for 16 compounds.

The test system of the assay is BDF1 mice, colon carcinoma 38 sc, T/C %. The experiment in a line: NCI In Vivo Anticancer Drug Screen. Data for tumor model Colon Carcinoma 38 (subcutaneous) in B6D2F1 (BDF1) mice. An outline of the steps: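 Ratio of survival or tumor size, compound-treated animals relative to vehicle controls, in tumor-bearing mice.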
Setting [1] is: T/C endpoint: median tumor weight (est.), dose: 400.0 mg/kg/injection, schedule: Q07DX002 (ip), vehicle: saline, higher T/C = larger tumour.
Setting [2] is: T/C endpoint: median tumor weight (est.), dose: 50.0 mg/kg/injection, schedule: Q07DX002 (ip), vehicle: saline, higher T/C = larger tumour.
[3] abbreviates: T/C endpoint: median tumor weight (est.), dose: 200.0 mg/kg/injection, schedule: Q07DX002 (ip), vehicle: saline with Tween-80, higher T/C = larger tumour.
[4] abbreviates: T/C endpoint: median tumor weight (est.), dose: 400.0 mg/kg/injection, schedule: Q07DX002 (ip), vehicle: saline with Tween-80, higher T/C = larger tumour.
Setting [5] is: T/C endpoint: median tumor weight (est.), dose: 100.0 mg/kg/injection, schedule: Q07DX002 (ip), vehicle: saline with Tween-80, higher T/C = larger tumour.

The list shows only some results of the screen, not a fair sample: it gathers tests that were run many times, whatever their T/C, doses with no T/C, and many T/C values between a quarter and a half above the control. Other doses and runs of a compound stand elsewhere. T/C: endpoint of the treated group in % of that of the vehicle group. Schedule codes are those of the source, read here as Q, the interval in days (D) or hours (H), X, the number of doses. Some T/C values carry the count of animals alive at the toxicity check (mostly the fifth day); where none is given, no animal had died by that day. Some doses were run more than once; their values stand side by side, smallest first. Counts like (3×) say how often a value occurs here. Some doses have a count of surviving animals in place of a T/C: the source files T/C as zero there, which appears to mark a toxic dose or a test without result, not a measured value. Survivors were counted at the toxicity check, usually on the fifth day, unless a day is given; later deaths do not show. For survival time, the PubChem record calls one and a half times the control and up active, and a quarter to a half above the control has no call in these data; cut-offs in other NCI protocols can differ.

Take `CCN(Cc1ccc(Cl)c(Cl)c1)c1ccc2nc(N)nc(N)c2c1C`: the T/C was 133 % of control (T/C endpoint: median tumor weight (est.), dose: 12.5 mg/kg/injection, schedule: Q07DX002 (ip), vehicle: distilled water + Tween-80, evaluated on day 20, higher T/C = larger tumour); 131 and 133 % of control (T/C endpoint: median tumor weight (est.), dose: 25.0 mg/kg/injection, schedule: Q07DX002 (ip), vehicle: distilled water + Tween-80, evaluated on day 20, higher T/C = larger tumour). Moreover, the survivor count (T/C endpoint: median tumor weight (est.), dose: 200.0 mg/kg/injection, schedule: Q07DX002 (ip), vehicle: distilled water + Tween-80, higher T/C = larger tumour) is reported as 1 of 10 on day 20.
In the case of `CCCC(=O)Nc1ncnc2c1ncn2C1OC2COP(=O)(O)OC2C1OC(=O)CCC` (centres undefined), the survivor count is 6 of 10 on day 20 (T/C endpoint: median tumor weight (est.), dose: 25.0 mg/kg/injection, schedule: Q07DX002 (ip), vehicle: saline, higher T/C = larger tumour); 4 of 10 on day 20 under setting [1]; 5 of 10 on day 20 (T/C endpoint: median tumor weight (est.), dose: 800.0 mg/kg/injection, schedule: Q07DX002 (ip), vehicle: saline, higher T/C = larger tumour). The T/C (T/C endpoint: median tumor weight (est.), dose: 100.0 mg/kg/injection, schedule: Q07DX002 (ip), vehicle: saline, evaluated on day 20, higher T/C = larger tumour) was 129 % of control.
On to `CCOC(=O)C(CC(C)C)NC(=O)C(Cc1ccc(N(CCCl)CCCl)cc1)NC(C)=O` (centres undefined), for which the survivor count runs as follows: (T/C endpoint: median tumor weight (est.), dose: 128.0 mg/kg/injection, schedule: Q07DX002 (ip), vehicle: saline with Tween-80, higher T/C = larger tumour) 5 of 10; (T/C endpoint: median tumor weight (est.), dose: 256.0 mg/kg/injection, schedule: Q07DX003 (ip), vehicle: saline with Tween-80, higher T/C = larger tumour) 6 of 10.
For the compound `CN=C(N)N/N=C(\C)c1ccc2c(c1)Cc1cc(/C(C)=N/NC(N)=NC)ccc1-2`, for the setting “T/C endpoint: median tumor weight (est.), dose: 1.5 mg/kg/injection, schedule: Q07DX002 (ip), vehicle: saline with Tween-80, evaluated on day 20, higher T/C = larger tumour”, the T/C is 129 % of control [9 of 10 alive on day 20]. Besides, the survivor count is on record as 5 of 10 on day 20 (T/C endpoint: median tumor weight (est.), dose: 6.0 mg/kg/injection, schedule: Q07DX002 (ip), vehicle: saline with Tween-80, higher T/C = larger tumour); 0 of 10 on day 20 (T/C endpoint: median tumor weight (est.), dose: 12.0 mg/kg/injection, schedule: Q07DX002 (ip), vehicle: saline with Tween-80, higher T/C = larger tumour); 0 of 10 on day 20 (T/C endpoint: median tumor weight (est.), dose: 24.0 mg/kg/injection, schedule: Q07DX002 (ip), vehicle: saline with Tween-80, higher T/C = larger tumour).
Take `Cc1cn(C2CC3[O][Sn]([c]4ccccc4)([c]4ccccc4)[O]CC3O2)c(=O)[nH]c1=O` (centres undefined): under setting [1], the survivor count is reported as 3 of 10 on day 20.
Take `C/C(=C\c1ccccc1)[N+](=O)[O-]`: the T/C (T/C endpoint: median tumor weight (est.), dose: 12.5 mg/kg/injection, schedule: Q07DX003 (ip), vehicle: Klucel (hydroxypropylcellulose) (HPC), evaluated on day 20, higher T/C = larger tumour) was 141 % of control.
Regarding `C=C1C(=O)OC2CC1CCC1(C)OC1CCC(C)=CCCC2(C)O` (centres undefined), the T/C (T/C endpoint: median tumor weight (est.), dose: 15.0 mg/kg/injection, schedule: Q07DX002 (ip), vehicle: Klucel (hydroxypropylcellulose) (HPC), evaluated on day 20, higher T/C = larger tumour) was 135 % of control.
Regarding `C[N+](C)(C)c1cc2c(nn1)Nc1ccccc1S2`, the T/C was 143 % of control [9 of 10 alive] (T/C endpoint: median tumor weight (est.), dose: 6.25 mg/kg/injection, schedule: Q07DX002 (ip), vehicle: Klucel (hydroxypropylcellulose) (HPC), evaluated on day 20, higher T/C = larger tumour); 129 % of control (T/C endpoint: median tumor weight (est.), dose: 12.5 mg/kg/injection, schedule: Q07DX002 (ip), vehicle: Klucel (hydroxypropylcellulose) (HPC), evaluated on day 20, higher T/C = larger tumour); 125 % of control (T/C endpoint: median tumor weight (est.), dose: 50.0 mg/kg/injection, schedule: Q07DX002 (ip), vehicle: Klucel (hydroxypropylcellulose) (HPC), evaluated on day 20, higher T/C = larger tumour); 132 % of control (T/C endpoint: median tumor weight (est.), dose: 100.0 mg/kg/injection, schedule: Q07DX002 (ip), vehicle: Klucel (hydroxypropylcellulose) (HPC), evaluated on day 20, higher T/C = larger tumour).
Take `COc1cccc2c1C(=O)c1c(O)c3c(c(O)c1C2=O)C[C@@](O)(C(C)=O)C[C@@H]3OC1CC(N(C)C)C(O)C(C)O1` (some centres undefined): the T/C was 131 % of control (T/C endpoint: median survival time, dose: 16.0 mg/kg/injection, schedule: Q07DX002 (iv), vehicle: saline, higher T/C = longer survival); 147 % of control (T/C endpoint: median survival time, dose: 25.0 mg/kg/injection, schedule: Q07DX002 (iv), vehicle: saline, higher T/C = longer survival); 131 % of control [8 of 10 alive on day 20] (T/C endpoint: median tumor weight (est.), dose: 1.12 mg/kg/injection, schedule: Q07DX002 (ip), vehicle: saline, evaluated on day 20, higher T/C = larger tumour); 125 % of control [9 of 10 alive on day 20] (T/C endpoint: median tumor weight (est.), dose: 2.25 mg/kg/injection, schedule: Q07DX002 (ip), vehicle: saline, evaluated on day 20, higher T/C = larger tumour); 28, 78, 82, 105 % of control (T/C endpoint: median tumor weight (est.), dose: 4.5 mg/kg/injection, schedule: Q07DX002 (ip), vehicle: saline, evaluated on day 20, higher T/C = larger tumour); 35, 69, 73, 88 % of control (T/C endpoint: median tumor weight (est.), dose: 9.0 mg/kg/injection, schedule: Q07DX002 (ip), vehicle: saline, evaluated on day 20, higher T/C = larger tumour). Further, the survivor count (T/C endpoint: median survival time, dose: 39.0 mg/kg/injection, schedule: Q07DX002 (iv), vehicle: saline, higher T/C = longer survival) was 1 of 10 on day 92 and the survivor count (T/C endpoint: median tumor weight (est.), dose: 36.0 mg/kg/injection, schedule: Q07DX002 (ip), vehicle: saline, higher T/C = larger tumour) is 0 of 10 on day 20, 1 of 10 on day 20, 2 of 10 on day 20.
On to `O=c1n(CC2CO2)c(=O)n(CC2CO2)c(=O)n1CC1CO1` (centres undefined), for which the T/C by setting is: (T/C endpoint: median tumor weight (est.), dose: 3.12 mg/kg/injection, schedule: Q07DX002 (ip), vehicle: saline, evaluated on day 20, higher T/C = larger tumour) 58, 62 [9 of 10 alive on day 20], 91, 93 [9 of 10 alive on day 20], 100, 101 % of control; (T/C endpoint: median tumor weight (est.), dose: 6.25 mg/kg/injection, schedule: Q07DX002 (ip), vehicle: saline, evaluated on day 20, higher T/C = larger tumour) 62, 63, 64, 73, 93 [9 of 10 alive on day 20], 95 % of control; (T/C endpoint: median tumor weight (est.), dose: 12.5 mg/kg/injection, schedule: Q07DX002 (ip), vehicle: saline, evaluated on day 20, higher T/C = larger tumour) 48, 52, 61, 62, 86, 94 % of control; (T/C endpoint: median tumor weight (est.), dose: 25.0 mg/kg/injection, schedule: Q07DX002 (ip), vehicle: saline, evaluated on day 20, higher T/C = larger tumour) 32, 43, 53, 54, 60, 70 [9 of 10 alive on day 20], 104 % of control; (T/C endpoint: median tumor weight (est.), dose: 50.0 mg/kg/injection, schedule: Q07DX002 (ip), vehicle: saline, evaluated on day 20, higher T/C = larger tumour) 20, 30 (2×), 52, 73, 93 % of control. In addition, the survivor count is, setting by setting: under setting [2], 6 of 10 on day 20; (T/C endpoint: median tumor weight (est.), dose: 100.0 mg/kg/injection, schedule: Q07DX002 (ip), vehicle: saline, higher T/C = larger tumour) 0 of 10 on day 20, 1 of 10 on day 20, 3 of 10 on day 20, 5 of 10 on day 20; (T/C endpoint: median tumor weight (est.), dose: 100.0 mg/kg/injection, schedule: Q07DX002 (ip), vehicle: suspension in saline, higher T/C = larger tumour) 1 of 10 on day 20 and 6 of 10 on day 20; (T/C endpoint: median tumor weight (est.), dose: 100.0 mg/kg/injection, schedule: Q07DX003 (ip), vehicle: saline, higher T/C = larger tumour) 6 of 10 on day 20; under setting [3], 0 of 10 on day 20 and 2 of 10 on day 20; (T/C endpoint: median tumor weight (est.), dose: 200.0 mg/kg/injection, schedule: Q07DX002 (ip), vehicle: suspension in saline, higher T/C = larger tumour) 0 of 10 on day 20 and 3 of 10 on day 20. Besides, the survivor count reads like this: under setting [4], 0 of 10 on day 20 (2×); (T/C endpoint: median tumor weight (est.), dose: 400.0 mg/kg/injection, schedule: Q07DX002 (ip), vehicle: suspension in saline, higher T/C = larger tumour) 0 of 10 on day 20 (2×).
With `BrCC[Se]c1ccccc1`, under “T/C endpoint: median tumor weight (est.), dose: 25.0 mg/kg/injection, schedule: Q07DX002 (ip), vehicle: saline with Tween-80, evaluated on day 20, higher T/C = larger tumour”, the T/C is 127 [8 of 10 alive on day 20] and 149 % of control. Also, the survivor count is 0 of 10 on day 20 (T/C endpoint: median tumor weight (est.), dose: 50.0 mg/kg/injection, schedule: Q07DX002 (ip), vehicle: saline with Tween-80, higher T/C = larger tumour); 0 of 10 on day 20 and 3 of 10 on day 20 under setting [5]; 0 of 10 on day 20 under setting [3].
As to `NC(N)=NC(N)=Nc1ccc(-c2ccc(N=C(N)N=C(N)N)cc2)cc1`, the survivor count under setting [5] is reported as 0 of 10 on day 20.
In the case of `COc1cccc2c1C(=O)c1c(O)c3c(c(O)c1C2=O)CC(O)(/C(C)=N/NC(=O)CCCCC(=O)N/N=C(\C)C1(O)Cc2c(O)c4c(c(O)c2C(OC2CC(N)C(O)C(C)O2)C1)C(=O)c1c(OC)cccc1C4=O)CC3OC1CC(N)C(O)C(C)O1` (centres undefined), the survivor count is 0 of 10 on day 20 under setting [2] and 0 of 10 on day 20 (T/C endpoint: median tumor weight (est.), dose: 50.0 mg/kg/injection, schedule: Q07DX002 (ip), vehicle: water, higher T/C = larger tumour).
On to `F[B-](F)(F)F`, for which the T/C (T/C endpoint: median tumor weight (est.), dose: 100.0 mg/kg/injection, schedule: Q07DX002 (ip), vehicle: gum acacia, evaluated on day 20, higher T/C = larger tumour) was 128 % of control.
As for `COc1ccc(C(Cn2ccnc2)Sc2ccc(Cl)c(Cl)c2)cc1` (centres undefined), the survivor count is 4 of 10 on day 20 under setting [5], 0 of 10 on day 20 under setting [3] and 0 of 10 on day 20 under setting [4].
On to `CNc1cccnc1/C=N/NC(N)=S`, for which, under “T/C endpoint: median tumor weight (est.), dose: 50.0 mg/kg/injection, schedule: Q07DX002 (ip), vehicle: saline with Tween-80, evaluated on day 20, higher T/C = larger tumour”, the T/C was 138 % of control. Moreover, the survivor count (T/C endpoint: median tumor weight (est.), dose: 800.0 mg/kg/injection, schedule: Q07DX002 (ip), vehicle: saline with Tween-80, higher T/C = larger tumour) was 1 of 10 on day 20.
